Results are given in words; binding and its absence hold for the method and conditions named. In cells and extracts the contact can be indirect.
Molecular target: sfTq2^oxopt-GlpT (UniProt P08194)
Test: FRET or BRET; in E. coli LMC500 cells with two plasmids, steady-state growth in GB1 medium at 28 °C, 15 µM IPTG for two mass doublings, fixed with 2.8% formaldehyde and 0.04% glutardialdehyde, overnight maturation; emission spectra by spectrofluorometer, unmixed; donor sfTq2^oxopt, acceptor RBS^short-mNG-v4

Protein sequences, listed by entry. Tags and fused reporters are not part of them. Lines headed by an entry give the natural chain unless they say otherwise; changes in a name come on top.
UniProt P08194: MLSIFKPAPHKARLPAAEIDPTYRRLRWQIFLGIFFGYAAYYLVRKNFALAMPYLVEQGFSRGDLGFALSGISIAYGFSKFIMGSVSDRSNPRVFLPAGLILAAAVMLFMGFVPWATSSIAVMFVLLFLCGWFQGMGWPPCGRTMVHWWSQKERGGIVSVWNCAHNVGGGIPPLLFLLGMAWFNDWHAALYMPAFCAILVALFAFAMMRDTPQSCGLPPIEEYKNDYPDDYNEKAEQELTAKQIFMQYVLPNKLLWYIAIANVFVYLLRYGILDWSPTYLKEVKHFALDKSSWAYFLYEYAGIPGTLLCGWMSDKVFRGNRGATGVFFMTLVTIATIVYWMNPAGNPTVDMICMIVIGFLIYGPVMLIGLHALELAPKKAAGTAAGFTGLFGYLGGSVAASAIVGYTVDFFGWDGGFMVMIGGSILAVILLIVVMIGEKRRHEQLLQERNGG
UniProt P0ABG7: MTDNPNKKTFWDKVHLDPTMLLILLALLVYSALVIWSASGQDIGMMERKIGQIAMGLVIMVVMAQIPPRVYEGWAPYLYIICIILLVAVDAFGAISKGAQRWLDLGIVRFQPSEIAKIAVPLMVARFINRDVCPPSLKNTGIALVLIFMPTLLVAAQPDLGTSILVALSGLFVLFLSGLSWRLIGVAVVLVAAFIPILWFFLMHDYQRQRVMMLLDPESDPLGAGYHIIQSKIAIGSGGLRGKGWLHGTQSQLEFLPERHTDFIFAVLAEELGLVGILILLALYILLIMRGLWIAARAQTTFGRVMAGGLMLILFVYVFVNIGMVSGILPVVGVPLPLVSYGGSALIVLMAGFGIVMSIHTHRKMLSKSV

## RBS^short-mNG-v4-RodA (from UniProt P0ABG7)
  binding: no binding

Source: paper PMC9606377
